The values that follow come from article PMC10279920, “Single-molecule visualization of Pif1 helicase translocation on single-stranded DNA” (The Journal of Biological Chemistry, 2023).

Data set [1] concerns the target T1, GFP-Pif1 V385A (Saccharomyces cerevisiae) (UniProt P07271).
T1 sequence (looked up): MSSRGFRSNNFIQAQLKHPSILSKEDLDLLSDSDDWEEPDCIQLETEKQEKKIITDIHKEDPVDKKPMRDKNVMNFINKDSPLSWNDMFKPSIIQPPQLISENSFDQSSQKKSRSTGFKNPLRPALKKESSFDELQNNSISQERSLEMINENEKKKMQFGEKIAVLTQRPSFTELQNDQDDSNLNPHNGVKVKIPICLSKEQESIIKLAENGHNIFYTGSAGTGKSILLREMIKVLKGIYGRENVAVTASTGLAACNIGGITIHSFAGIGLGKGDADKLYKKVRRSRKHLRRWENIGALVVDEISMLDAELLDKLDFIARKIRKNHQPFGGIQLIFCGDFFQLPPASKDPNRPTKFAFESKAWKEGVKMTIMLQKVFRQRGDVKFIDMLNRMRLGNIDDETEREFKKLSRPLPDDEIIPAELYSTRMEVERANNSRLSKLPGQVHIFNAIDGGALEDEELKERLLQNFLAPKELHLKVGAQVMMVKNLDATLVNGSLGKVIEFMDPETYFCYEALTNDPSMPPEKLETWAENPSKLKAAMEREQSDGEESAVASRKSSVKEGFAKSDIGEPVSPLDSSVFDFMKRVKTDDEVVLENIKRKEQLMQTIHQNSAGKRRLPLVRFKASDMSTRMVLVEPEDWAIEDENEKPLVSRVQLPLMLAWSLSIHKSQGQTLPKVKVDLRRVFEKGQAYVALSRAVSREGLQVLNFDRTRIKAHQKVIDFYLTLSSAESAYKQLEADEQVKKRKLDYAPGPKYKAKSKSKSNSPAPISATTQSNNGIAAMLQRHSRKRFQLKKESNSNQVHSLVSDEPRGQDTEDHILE
As to the kind of experiment: EMSA. The conditions noted are these: no ATP, 5 mM Mg2+, 35 mM Tris-HCl pH 7.5, 1 mM DTT, 5 mM MgCl2, 60 mM KCl, 0.1 mg/ml BSA, 30 min at 30 C, 5 nM ssDNA, recombinant protein, residues 40-859, protein details: N-terminal superfolder GFP, Ni-NTA purified, label: 5' Alexa647, single-stranded DNA. A general note: Mobility shift assays separate free from complexed probe on a gel.

Data set [2] deals with T2, GFP-Pif1 S304A (Saccharomyces cerevisiae) (UniProt P07271).
T2 sequence (looked up): T1 sequence (looked up) with S265A, A346V
As to the kind of experiment: EMSA. As to conditions: no ATP, 5 mM Mg2+, 35 mM Tris-HCl pH 7.5, 1 mM DTT, 5 mM MgCl2, 60 mM KCl, 0.1 mg/ml BSA, 30 min at 30 C, 5 nM ssDNA, recombinant protein, residues 40-859, protein details: N-terminal superfolder GFP, Ni-NTA purified, label: 5' Alexa647, single-stranded DNA.

Numbering of substitutions follows the chain as printed. The comparison behind a weaker result is the experiment's own reference, which may not be listed here. Tags and fusion partners may be left off the protein sequences shown.

Turning to “GCTAGCAGTAGCCAGCATCGAACGTACGATCGGTAACGTA [40-nt ssDNA]”, the binding result in data set [1] and in data set [2] was “binds more weakly” each time.
